To fix the notation:
B1: mediator subunit 23 (MED23) (protein, UniProt Q9ULK4 1-1368)
chain: METQLQSIFEEVVKTEVIEEAFPGMFMDTPEDEKTKLISCLGAFRQFWGGLSQESHEQCIQWIVKFIHGQHSPKRISFLYDCLAMAVETGLLPPRLVCESLINSDTLEWERTQLWALTFKLVRKIIGGVDYKGVRDLLKVILEKILTIPNTVSSAVVQQLLAAREVIAYILERNACLLPAYFAVTEIRKLYPEGKLPHWLLGNLVSDFVDTFRPTARINSICGRCSLLPVVNNSGAICNSWKLDPATLRFPLKGLLPYDKDLFEPQTALLRYVLEQPYSRDMVCNMLGLNKQHKQRCPVLEDQLVDLVVYAMERSETEEKFDDGGTSQLLWQHLSSQLIFFVLFQFASFPHMVLSLHQKLAGRGLIKGRDHLMWVLLQFISGSIQKNALADFLPVMKLFDLLYPEKEYIPVPDINKPQSTHAFAMTCIWIHLNRKAQNDNSKLQIPIPHSLRLHHEFLQQSLRNKSLQMNDYKIALLCNAYSTNSECFTLPMGALVETIYGNGIMRIPLPGTNCMASGSITPLPMNLLDSLTVHAKMSLIHSIATRVIKLAHAKSSVALAPALVETYSRLLVYMEIESLGIKGFISQLLPTVFKSHAWGILHTLLEMFSYRMHHIQPHYRVQLLSHLHTLAAVAQTNQNQLHLCVESTALRLITALGSSEVQPQFTRFLSDPKTVLSAESEELNRALILTLARATHVTDFFTGSDSIQGTWCKDILQTIMSFTPHNWASHTLSCFPGPLQAFFKQNNVPQESRFNLKKNVEEEYRKWKSMSNENDIITHFSMQGSPPLFLCLLWKMLLETDHINQIGYRVLERIGARALVAHVRTFADFLVYEFSTSAGGQQLNKCIEILNDMVWKYNIVTLDRLILCLAMRSHEGNEAQVCYFIIQLLLLKPNDFRNRVSDFVKENSPEHWLQNDWHTKHMNYHKKYPEKLYFEGLAEQVDPPVQIQSPYLPIYFGNVCLRFLPVFDIVIHRFLELLPVSKSLETLLDHLGGLYKFHDRPVTYLYNTLHYYEMHLRDRAFLKRKLVHAIIGSLKDNRPQGWCLSDTYLKCAMNAREENPWVPDDTYYCRLIGRLVDTMAGKSPGPFPNCDWRFNEFPNPAAHALHVTCVELMALAVSGKEVGNALLNVVLKSQPLVPRENITAWMNAIGLIITALPEPYWIVLHDRIVSVISSPSLTSETEWVGYPFRLFDFTACHQSYSEMSCSYTLALAHAVWHHSSIGQLSLIPKFLTEVLLPIVKTEFQLLYVYHLVGPFLQRFQQERTRCMIEIGVAFYDMLLNVDQCSTHLNYMDPICDFLYHMKYMFTGDSVKEQVEKIICNLKPALKLRLRFITHISKMEPAAVPPQAMNSGSPAPQSNQVPVSLPVTQ
B2: CCCTC-binding factor (CTCF) (protein, UniProt P49711 1-727)
chain: MEGDAVEAIVEESETFIKGKERKTYQRRREGGQEEDACHLPQNQTDGGEVVQDVNSSVQMVMMEQLDPTLLQMKTEVMEGTVAPEAEAAVDDTQIITLQVVNMEEQPINIGELQLVQVPVPVTVPVATTSVEELQGAYENEVSKEGLAESEPMICHTLPLPEGFQVVKVGANGEVETLEQGELPPQEDPSWQKDPDYQPPAKKTKKTKKSKLRYTEEGKDVDVSVYDFEEEQQEGLLSEVNAEKVVGNMKPPKPTKIKKKGVKKTFQCELCSYTCPRRSNLDRHMKSHTDERPHKCHLCGRAFRTVTLLRNHLNTHTGTRPHKCPDCDMAFVTSGELVRHRRYKHTHEKPFKCSMCDYASVEVSKLKRHIRSHTGERPFQCSLCSYASRDTYKLKRHMRTHSGEKPYECYICHARFTQSGTMKMHILQKHTENVAKFHCPHCDTVIARKSDLGVHLRKQHSYIEQGKKCRYCDAVFHERYALIQHQKSHKNEKRFKCDQCDYACRQERHMIMHKRTHTGEKPYACSHCDKTFRQKQLLDMHFKRYHDPNFVPAAFVCSKCGKTFTRRNTMARHADNCAGPDGVEGENGGETKKSKRGRKRKMRSKKEDSSDSENAEPDLDDNEDEEEPAVEIEPEPEPQPVTPAPPPAKKRRGRPPGRTNQPKQNQPTAIIQVEDQNTGAIENIIVEVKKEPDAEPAEGEEEEAQPAATDAPNGDLTPEMILSMMDR
B3: structural maintenance of chromosomes 1A protein (SMC1A) (protein, UniProt Q14683 1-1233)
chain: MGFLKLIEIENFKSYKGRQIIGPFQRFTAIIGPNGSGKSNLMDAISFVLGEKTSNLRVKTLRDLIHGAPVGKPAANRAFVSMVYSEEGAEDRTFARVIVGGSSEYKINNKVVQLHEYSEELEKLGILIKARNFLVFQGAVESIAMKNPKERTALFEEISRSGELAQEYDKRKKEMVKAEEDTQFNYHRKKNIAAERKEAKQEKEEADRYQRLKDEVVRAQVQLQLFKLYHNEVEIEKLNKELASKNKEIEKDKKRMDKVEDELKEKKKELGKMMREQQQIEKEIKEKDSELNQKRPQYIKAKENTSHKIKKLEAAKKSLQNAQKHYKKRKGDMDELEKEMLSVEKARQEFEERMEEESQSQGRDLTLEENQVKKYHRLKEEASKRAATLAQELEKFNRDQKADQDRLDLEERKKVETEAKIKQKLREIEENQKRIEKLEEYITTSKQSLEEQKKLEGELTEEVEMAKRRIDEINKELNQVMEQLGDARIDRQESSRQQRKAEIMESIKRLYPGSVYGRLIDLCQPTQKKYQIAVTKVLGKNMDAIIVDSEKTGRDCIQYIKEQRGEPETFLPLDYLEVKPTDEKLRELKGAKLVIDVIRYEPPHIKKALQYACGNALVCDNVEDARRIAFGGHQRHKTVALDGTLFQKSGVISGGASDLKAKARRWDEKAVDKLKEKKERLTEELKEQMKAKRKEAELRQVQSQAHGLQMRLKYSQSDLEQTKTRHLALNLQEKSKLESELANFGPRINDIKRIIQSREREMKDLKEKMNQVEDEVFEEFCREIGVRNIREFEEEKVKRQNEIAKKRLEFENQKTRLGIQLDFEKNQLKEDQDKVHMWEQTVKKDENEIEKLKKEEQRHMKIIDETMAQLQDLKNQHLAKKSEVNDKNHEMEEIRKKLGGANKEMTHLQKEVTAIETKLEQKRSDRHNLLQACKMQDIKLPLSKGTMDDISQEEGSSQGEDSVSGSQRISSIYAREALIEIDYGDLCEDLKDAQAEEEIKQEMNTLQQKLNEQQSVLQRIAAPNMKAMEKLESVRDKFQETSDEFEAARKRAKKAKQAFEQIKKERFDRFNACFESVATNIDEIYKALSRNSSAQAFLGPENPEEPYLDGINYNCVAPGKRFRPMDNLSGGEKTVAALALLFAIHSYKPAPFFVLDEIDAALDNTNIGKVANYIKEQSTCNFQAIVISLKEEFYTKAESLIGVYPEQGDCVISKVLTFDLTKYPDANPNPNEQ

Protein sequences, listed by entry. Tags and fused reporters are not part of them. Lines headed by an entry give the natural chain unless they say otherwise; changes in a name come on top.
UniProt P49023: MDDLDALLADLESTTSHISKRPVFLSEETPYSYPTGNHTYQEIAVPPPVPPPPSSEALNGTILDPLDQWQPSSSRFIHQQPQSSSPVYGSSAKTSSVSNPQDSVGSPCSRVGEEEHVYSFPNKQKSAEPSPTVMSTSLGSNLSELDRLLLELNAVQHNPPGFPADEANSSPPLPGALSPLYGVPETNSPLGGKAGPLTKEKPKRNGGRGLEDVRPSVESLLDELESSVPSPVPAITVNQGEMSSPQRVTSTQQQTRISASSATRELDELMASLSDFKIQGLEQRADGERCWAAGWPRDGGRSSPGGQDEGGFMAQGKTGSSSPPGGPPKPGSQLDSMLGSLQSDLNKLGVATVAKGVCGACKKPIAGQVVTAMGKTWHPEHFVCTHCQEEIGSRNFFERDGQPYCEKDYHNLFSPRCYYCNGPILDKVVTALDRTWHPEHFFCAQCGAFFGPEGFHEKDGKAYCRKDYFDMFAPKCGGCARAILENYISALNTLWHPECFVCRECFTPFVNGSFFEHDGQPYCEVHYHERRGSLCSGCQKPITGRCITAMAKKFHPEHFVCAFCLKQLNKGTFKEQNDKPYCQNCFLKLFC
UniProt Q9UQE7: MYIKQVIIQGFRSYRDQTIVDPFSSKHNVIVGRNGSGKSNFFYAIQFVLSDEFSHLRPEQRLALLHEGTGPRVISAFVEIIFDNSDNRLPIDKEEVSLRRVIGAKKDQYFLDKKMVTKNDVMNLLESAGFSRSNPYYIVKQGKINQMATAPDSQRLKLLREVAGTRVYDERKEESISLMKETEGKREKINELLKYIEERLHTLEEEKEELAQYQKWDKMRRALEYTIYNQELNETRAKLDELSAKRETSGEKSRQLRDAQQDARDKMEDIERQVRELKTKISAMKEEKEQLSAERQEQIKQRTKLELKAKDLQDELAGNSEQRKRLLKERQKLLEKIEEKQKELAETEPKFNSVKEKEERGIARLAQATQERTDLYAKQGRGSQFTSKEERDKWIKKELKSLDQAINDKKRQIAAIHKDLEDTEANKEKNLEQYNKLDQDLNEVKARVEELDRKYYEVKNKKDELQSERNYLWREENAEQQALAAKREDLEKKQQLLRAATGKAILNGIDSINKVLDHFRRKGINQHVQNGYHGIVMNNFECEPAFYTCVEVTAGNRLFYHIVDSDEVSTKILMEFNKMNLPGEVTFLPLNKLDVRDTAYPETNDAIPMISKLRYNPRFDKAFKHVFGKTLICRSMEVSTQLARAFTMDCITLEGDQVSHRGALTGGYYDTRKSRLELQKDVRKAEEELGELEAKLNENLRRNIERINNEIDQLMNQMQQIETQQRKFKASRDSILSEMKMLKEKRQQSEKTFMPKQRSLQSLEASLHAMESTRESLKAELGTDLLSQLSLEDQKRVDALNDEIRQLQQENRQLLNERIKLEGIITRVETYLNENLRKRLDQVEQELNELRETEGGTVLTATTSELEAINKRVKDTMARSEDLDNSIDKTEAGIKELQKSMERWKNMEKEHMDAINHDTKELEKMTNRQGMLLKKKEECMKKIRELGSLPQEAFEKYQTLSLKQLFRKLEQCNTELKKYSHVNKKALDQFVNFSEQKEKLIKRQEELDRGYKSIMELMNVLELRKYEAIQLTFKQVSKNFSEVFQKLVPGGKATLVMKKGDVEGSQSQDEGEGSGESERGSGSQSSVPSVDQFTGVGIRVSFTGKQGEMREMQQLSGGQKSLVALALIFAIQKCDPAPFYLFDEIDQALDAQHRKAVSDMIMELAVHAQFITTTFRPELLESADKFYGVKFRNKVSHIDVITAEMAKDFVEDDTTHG

Experimental findings from paper PMC4541046 are described below.

Results are given in words; binding and its absence hold for the method and conditions named. Binding seen in cells or lysates may run through a third protein. Binding calls can cover weak binding; strength is not graded here.

This test concerns the target EGFP–STrEP-paxillin (PXN) (human) (UniProt P49023). Nature of the test: pull-down; Strep-Tactin sepharose beads added to the lysate of HEK293 cells stably expressing STrEP-EGFP–PXN or STrEP-EGFP (control), 2 h; lysis buffer 20 mM HEPES-KOH pH 7.40, 5 mM CH3COOK, 150 mM NaCl, 0.5 mM MgCl2, 0.5 mM DTT, 0.5% Triton X-100; eluted with 2.5 mM desthiobiotin; pull-down fractions immunoblotted.
As to “structural maintenance of chromosomes 3 protein (SMC3) (from UniProt Q9UQE7 1-1217)”, the binding result is reported as “binds”.

Turning to B1, the binding result is on record as “binds”.

Consider B2, for which the binding result is listed as “no binding”.

B3: the binding result is on record as “binds”.
